At least one compound was matched to its structure with a doubt left.
Assay: Geometric particle size of rifampicin blends and starting materials (HELOS laser diffraction, RODOS)
Type: physicochemical
Conditions: Table 3; particle size distribution
Protocol: The geometric particle size of the powder blends was measured using laser diffraction (HELOS, Sympatec, Germany) for the pre-blend and after each blending cycle. Measurements were done using a RODOS powder disperser at a pressure drop of 1 bar and rotor speed set at 50% (FIG. 6). […] The particles diameter is expressed as the mean Xn diameter values, where n % of the particles have a diameter≤X. Jaffari, S., et al. Rapid Characterisation of the Inherent Dispersibility of Respirable Powders Using Dry Dispersion Laser Diffraction. Int. J. Pharm. […] A measure of particle size distribution breadth is represented by the calculated factor “Span”. This was calculated using the following expression: (X90−X10)/X50.
Particle size analysis was conducted on blended materials and compared to pre-blend and lactose/magnesium stearate controls.

CO[C@H]1/C=C/O[C@@]2(C)Oc3c(C)c(O)c4c(O)c(c(/C=N/N5CCN(C)CC5)c(O)c4c3C2=O)NC(=O)/C(C)=C\C=C\[C@H](C)[C@H](O)[C@@H](C)[C@@H](O)[C@@H](C)[C@H](OC(C)=O)[C@@H]1C [Micronized rifampicin, rifampicin, reference compound]
X10: 0.72 μm
X50: 2.18 μm
X90: 6.42 μm
